Experimental data from article PMC5450317.

T1: Msd1-GFP (Drosophila) (UniProt Q9W0G7)
T1 sequence: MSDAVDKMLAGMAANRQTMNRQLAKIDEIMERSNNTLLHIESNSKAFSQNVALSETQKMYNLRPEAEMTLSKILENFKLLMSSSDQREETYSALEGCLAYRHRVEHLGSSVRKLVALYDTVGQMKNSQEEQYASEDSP


Target: T1, Msd1-GFP (Drosophila)
Assay: affinity purification with mass spectrometry; GFP-TRAP-A beads incubated overnight at 4°C with clarified extract of 0-3 h Drosophila embryos expressing Msd1-GFP; C buffer (50 mM HEPES pH 7.4, 50 mM KCl, 1 mM MgCl2, 1 mM EGTA, 0.1% IGEPAL CA-630); on-bead trypsin digestion, LC-MS/MS

Binder | binding
Dgt3 (protein, UniProt Q9W2P0 1-565) MGDLLSNSEFFKKLGVDSSNQWILYDEQMEMFFKFLSGNITDANILTERQVLEREEMQRRGEWLSASDRELKLLQIEAESPGLLNYKQQDVDALTMSIEAIEDASRDYATLLEDMMTTKHSITKHLGEVECVTAELQLREKDLIAECQSKAKQLEELQQENCRLSAEAKKAFTAPQLPPLFMHQLPLEQYFHKCDSFMQYFTLYVKENFKIQDYDEFQSAEEDLGREKAKLEDLERGIQFYALSYIRTKAKVKATQCLIDQLDLGKIHCLSLTDMAREMHDLQLLNDYQLSNTHDTLLNDLTIHIQQHTQRRIELVLYENTKLKLERAVRRHESDKKLTKIISDALSNAELLWIAIQLDCDKKRNCLDTSEELRDQAQATWQRIQTMRSINASYQGICAQFVQEIANLLSAHLGQNIKATEAKACLFEYEKFGRLLSYSFQSMLNRKSCAAVQDQLAELKRLEQTLRPFVYDSPLEQPMFENVRYLSAIYNVTQQQTRLDESGRSLRKDFLENVVGRIERDKLYRYSVVLWIWFLTEPQRMMHAIDEVKKAAAAVIRPGGGLHRK | binds
Dgt6 (protein, UniProt Q9VAP2 1-654) MDRTIIAPWKAEEKEQSEKLHRKLQGLALVHPLPDELRKLIAWDMFLKPNQVAFVHVMHYLFRLLDPAEFKRRFFWPITDKKSEANFRSSTVEYLKHLNEKHQLHWANIKSYLVVMPGGMRFINFLLEFVGFVIQELIKQREKSLGLEAGTPNVSAKVMARQNAVMKEYASSYVVNLEENTALLRDKTQKIRRLMADLSADMGVPEEQLADDGFLDEFEATAALGVERVITQPTERKFDLEASLCGLKEAIDLFQVKQAENNQSKEAVEKALRGMRVLFDCDAVTEGDFYDPLGASKMDALLNGFNRISGTIAEQLDANDHYNESNAFVTTDLQALRVELSQSEVQLNNLLKKLNEPSKKDKGSANASGSARVQTLQPATPRFESVISSKFVSTPPIRIDMGGGGGRNAPVRLALQDDFNGKQFDALSNSLLAPAPPRSARKLKALDQSTGIDLNGTLNRSKINDPMQMLRTIHKNTSKVKAAPQANLSSLGSKWKQMQASFGFDEAPVPGAAVISPQTSPTDPSDPFTPLSGSECTRIERIPRTSENNTSLIAKSAAVIKVLEVSRNVLNLSTSPSGRLDALVPHTESHQQDVAPRLQLNDRTINDSLQLDPDFNIENDKNAFNVSHKFDFDQIGGEDDLQNISDSVLKDIIF | binds
Dgt2 (protein, UniProt Q9VKD6 1-231) MDDPSATLLPEHSEDLRLARDAELKKVLKLKLVLDELRRLDVGPNPSDEIKRALKLVSIGSYARLGEMEGAGQEQVLGLPSGSSFPPLNYTDRKTVRTKLSAQLRTTLQPIAELCDRIREEFPDAFGQEADLSCDQKEILRLEEEHRSGLEKLVALLTRKCTLLKETAELKLGPQLANELKLQQAQAQLVQTKAELLRGFFVHEAASRTEHSVKAHKEVEAHLDELLAAKK | binds
Dgt5 (protein, UniProt Q7K4B4 1-685) MAYQEKITEFKNWATNLGCPPTALPTDDALRRIFKSGSSLLLNQLQSRIQPVDYVREVRENLLIAQVARYKDKMVPLASRSFQPPELQRYQKIQELKKHKEKANQQLTEARKEYQKLSAGIKTKNIQTISAENRKQLLESKCNILDLKLESLNKNYDQELKNKIQILGTTPVKLSARNASEAQATRAVEQALKQLETFYGMCDDGNAVNNLAEAKQRLWDQMRSTFADIPNSLLLNVVMKIKEEQLQHIMKLNESRGECTNDKPPLNNYEVKLLKTKADMLGLAAKYFAAQKELELKEERFCQDYSVFVDKLQSKVYRFNGISLGDEENADELISDYLVQYNMRNFNRSQNEFLREQIEQLRLELDAGAKQLENHDLKLGSVKQVYGDINSSINRIQQDMVQLSQIKEKILFSRNMMKNLLDDMQAATQKQNAKSQLMSTKLKVSNMSMLGAESFCLANDSVFSSTKVEFDGNCSAINSTMRRSFDNKTLVPGGAASTTLMAASGATLPSHLLEFNTFLEIPLEKFSCTPRACSFLLSANPLIVEAQELASTVQLAPGYLLTPFGALQEVRKRILWASAIAAHTSELKLNLQPLIVDPHDLRLKASRQHEEIDQLLDNLMAIGVKTQLQLEKAERIYQFLLENPLRRYVPPSKRYNNGSFADYESEFNLYYRMTTNGSSMRAPPN | binds
Dgt4 (protein, UniProt Q9W4M8 1-188) METPPTPTTTTPPSLTTEGTMDDIQYLLHLEAMRRFQEDSRNVKRQVEEQVRIWLDAKCEYQRDFGRLARLLKCGALQAAVDAHRVSDVNQVDQAAKDIASLRSKLGSDLRPAILDSNDVKQCLEHLNTTHKPRLNLCRQQREFAQNQEALRSLRTAVDGLENGMEMGMIQAMDRLVEDLLPPRETNN | binds

Now from value to binder:

binding | Binder
binds | Msd5 (protein, UniProt Q9W0G6 1-253) METNVDFSSISSKLYRKYAQHVRNLKDVCVSKTVMKPGAFFDSLQQMMEEEAAATTPPRDLSSVADYAELFKTLEEYPANLQKMPKKRELQRTNSTLLRGADESVAMGINTSNVSLSLTRLEEQRSAVDVYNDFKGFQRKLAKIYDEAAALDTTESIYKQKLTQLHGFAQQLEKLMPTGGESPPDAFTSEQQEKLLTIAANMEQLNYLRSNSLQLPNPNEILATGSLAARLEMFVEVLTYTLLQVSSYNMAMI
binds | Wac (protein, UniProt Q9W0S8 1-163) MQNLKIQEEVNSLMRLGQHFDDQLKLASVELGDFSDDDLALLDKCAQYYSLLHIHDINLNYLRDFYCAKKRECIENRQTTVQQRVELQRILSSIEEATRDVVMLERFNAAAEERLIPDIVVMQRNAQQLATKQALLDRQKTLKIPKDFSIESVIEKVDSLEQR

These are yes or no findings as the source states them, for the method shown. In cells and extracts the contact can be indirect. A yes stands for co-enrichment or nearness to the bait. Other partners may have been found. Tags and fused reporters may be left off the sequences shown.
